Experimental data published in article PMC7819943, “Rice protein-binding microarrays: a tool to detect cis-acting elements near promoter regions in rice”.
The other results are listed elsewhere or left out.

Protein sequences, listed by entry. Tags and fused reporters are not part of them.
UniProt Q0JBA9, entry or part of it: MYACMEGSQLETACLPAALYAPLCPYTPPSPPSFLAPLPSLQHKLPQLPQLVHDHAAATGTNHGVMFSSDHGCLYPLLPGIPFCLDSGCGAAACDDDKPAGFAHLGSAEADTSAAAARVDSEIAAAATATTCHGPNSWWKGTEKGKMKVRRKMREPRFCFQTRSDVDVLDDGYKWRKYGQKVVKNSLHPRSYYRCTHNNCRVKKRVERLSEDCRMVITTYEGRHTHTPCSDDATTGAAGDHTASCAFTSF

molecular target: OsWRKY34 (Oryza sativa, UniProt Q0JBA9 1-250); assay: protein-binding microarray (RPBM); PBS, 2% BSA, 51.3 ng/ul salmon testes DNA, 50 uM zinc acetate, 200 nM TF, 25 C, 1 h; high values mean tight binding; settings: protein: recombinant; tags: N-terminal polyhistidine and DsRed monomer fusion (pET32a); label: CyDye5-dUTP incorporated in the synthesized complementary strand; 3' TTTTT single-stranded linker to array surface; dsDNA, one strand shown
In short: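 The binding signal is fluorescence intensity per feature, in arbitrary units, read on an Axon 4000B scanner. Polyhistidine- and DsRed-tagged transcription factors (N-terminal fusions) from E. coli BL21-CodonPlus were purified on Ni–NTA and applied at 200 nM for 1 h at 25 °C to a double-stranded, BSA-blocked custom Agilent array in buffer with 50 µM zinc acetate.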

Sequence	binding signal
ATCCTTGCTTGGTTTTGGGCTAAAAGTCCACTATTTCTTTCGGAGTCACCTAGTGCAG	10400 fluorescence intensity (a.u.)
TTGGAGTGTTTTATTCTTTCTTTTGTCGGATGTTGCAAATCGGAGTCACCTAGTGCAG	12300 fluorescence intensity (a.u.)
ACAGCTGCCACACCACACACACACACACACACAGCACGGCCGGAGTCACCTAGTGCAG	8270 fluorescence intensity (a.u.)
CTTGTGCGGATTGTTTCCCTATAACCGTGATGATAAATCACGGAGTCACCTAGTGCAG	8940 fluorescence intensity (a.u.)
TTGGTTTTCTTCTGCGTTCTCCATTGCCCTGTTCGATCAGCGGAGTCACCTAGTGCAG	9230 fluorescence intensity (a.u.)
ATTTTTTTTATGCCCAACTTTAACCGTTCATCCATTAAAACGGAGTCACCTAGTGCAG	8780 fluorescence intensity (a.u.)
ATCTTACTAGAGTGTCTTGCCAATCGTCCAGGTTTTACTACGGAGTCACCTAGTGCAG	9100 fluorescence intensity (a.u.)
AGCCATCCGGCCGCGGCCCGTCACAGGTAACTAGTCATTTCGGAGTCACCTAGTGCAG	9260 fluorescence intensity (a.u.)
GAAGGGTGGGAGGGGAAGGGGAGGACGAGCGGGCGGACGGCGGAGTCACCTAGTGCAG	11500 fluorescence intensity (a.u.)
GATAAGAAGATGAGAGGATGTGTGGTGTTTTATTGTGAAGCGGAGTCACCTAGTGCAG	8700 fluorescence intensity (a.u.)
CCCGAGGCGCCCCAATCTCCCTCGGTCTCTCCGCAGCTCCCGGAGTCACCTAGTGCAG	8510 fluorescence intensity (a.u.)
GGGGTGAACATTTCTTTCTTTCTGGTATTGTGGTTGAGGGCGGAGTCACCTAGTGCAG	19300 fluorescence intensity (a.u.)
CTTCTGCTGCTTCTCTCTCTCTCTCTGTGTCTAGTCTACCCGGAGTCACCTAGTGCAG	9420 fluorescence intensity (a.u.)
GGCAGAACCACTTTTCTTCTCAAGGCCTATTCTCATCTGTCGGAGTCACCTAGTGCAG	8030 fluorescence intensity (a.u.)
GCTCTTGGACCCTTGACCTGACTTGGTTGTCTTTCCTTATCGGAGTCACCTAGTGCAG	12400 fluorescence intensity (a.u.)
GGGATTAGTGGGTAGGGAGGGATTCATCCCCAACAGGGATCGGAGTCACCTAGTGCAG	12000 fluorescence intensity (a.u.)
GCCGGCGCCGGTGGCGTGCGGTCGTGGGCGGGAGGTGGTGCGGAGTCACCTAGTGCAG	12300 fluorescence intensity (a.u.)
CCACCTCCATATCTATCCACTTCTCACTCTCTCACACTCTCGGAGTCACCTAGTGCAG	9620 fluorescence intensity (a.u.)
TTCTATGTGTACTCTAGTCTCCTCTTCTAATATTCCTTTTCGGAGTCACCTAGTGCAG	9710 fluorescence intensity (a.u.)
TATCCAGTTTATCCACATCAAATCCATATATCTACACACGCGGAGTCACCTAGTGCAG	8130 fluorescence intensity (a.u.)
GGTCAGCATCTTAGGTCATATTTTCCCTGAATATATATGTCGGAGTCACCTAGTGCAG	8810 fluorescence intensity (a.u.)

Given with each value named: part of the list above.
TTGGTTTTCTTCTGCGTTCTCCATTGCCCTGTTCGATCAGCGGAGTCACCTAGTGCAG
  binding signal: 9230 fluorescence intensity (a.u.)
GCCGGCGCCGGTGGCGTGCGGTCGTGGGCGGGAGGTGGTGCGGAGTCACCTAGTGCAG
  binding signal: 12300 fluorescence intensity (a.u.)

Additional results follow:

Sequence	binding signal
TACGTACTCTTACCATGCATGCAGAGCTAGCTAATTACTCCGGAGTCACCTAGTGCAG	8190 fluorescence intensity (a.u.)
GCACCCTCGCCGTTGCAGCTCCATGTGACCACGGAGGGCCCGGAGTCACCTAGTGCAG	8420 fluorescence intensity (a.u.)
GCTATCCCTCTTATTCTCGCAACCACGCTGATCCCAAACCCGGAGTCACCTAGTGCAG	8340 fluorescence intensity (a.u.)
ATCCCCACACCTTCTCGCCACGGTCCGACGCGCAAGCGCGCGGAGTCACCTAGTGCAG	8310 fluorescence intensity (a.u.)
AGCCATAATTACAAACACCTGTGATATACTCTCTTATTTCCGGAGTCACCTAGTGCAG	9320 fluorescence intensity (a.u.)
CTGGGCTGACTTTTGCCCTCCCTTGGGCATCCATCTCCTCCGGAGTCACCTAGTGCAG	8510 fluorescence intensity (a.u.)
ACGCAGGGGAGGGAGGGAGCGGTGGTGGTGGCGGCGGCGCCGGAGTCACCTAGTGCAG	14000 fluorescence intensity (a.u.)
GTTTCGGAAGCCACATCAAGTTTGATCTCTTTCCAAATTACGGAGTCACCTAGTGCAG	8640 fluorescence intensity (a.u.)
CCGTCAATCTCGCCGTCACCTGCTTCTTCTCCTCTATAAACGGAGTCACCTAGTGCAG	10100 fluorescence intensity (a.u.)
ATTCGCCTATCTGAAATTTCGAACTCCCAACATCGCACGACGGAGTCACCTAGTGCAG	8640 fluorescence intensity (a.u.)
GAAGGAGAAGGAGAGGGGAGGGGCTGACGGGTGGGGTCCACGGAGTCACCTAGTGCAG	14000 fluorescence intensity (a.u.)
CTATTACTCTTGCGCATAACCTTATTTATTTCACTGCAGTCGGAGTCACCTAGTGCAG	8180 fluorescence intensity (a.u.)
TTTCTTGATTGTATGTTTGCTGCGTTAAGGGCTTCGGAGACGGAGTCACCTAGTGCAG	8390 fluorescence intensity (a.u.)
GCTGTTCCATGCTCCACAACCCCGGGTCATTGACCCAATCCGGAGTCACCTAGTGCAG	16700 fluorescence intensity (a.u.)
GTTACGCCAGTGAGGCCGGAGGGGTGTTTGGTTCGGAAAGCGGAGTCACCTAGTGCAG	10500 fluorescence intensity (a.u.)
CCGTTGACTTTTTAGTACGTGTTTGATTCATTCTTAAATACGGAGTCACCTAGTGCAG	16200 fluorescence intensity (a.u.)
ACTTTTGAGAGTGGTCTGGTTTGGGCTTTCGGCCTTTTTTCGGAGTCACCTAGTGCAG	8960 fluorescence intensity (a.u.)
GGCGTGGTGTTGTAGTATATTTTTTTCTGCTGCACAAAATCGGAGTCACCTAGTGCAG	11200 fluorescence intensity (a.u.)
GCCGGCTAAACTGGCTTATTGTACTTGCTCTTACTTGACTCGGAGTCACCTAGTGCAG	9430 fluorescence intensity (a.u.)
GTGTGGTGGAGGAGATGTGTGTATGTGCTTCTTTCAGACACGGAGTCACCTAGTGCAG	8330 fluorescence intensity (a.u.)
TAGTTCGTTTGTTTGGCTCCGCAGTAGCTATATAATTTTTCGGAGTCACCTAGTGCAG	8560 fluorescence intensity (a.u.)
